Among all 320,000 compounds or so, about 740 (0.23%) were called active. The shares of active, inactive and inconclusive entries below differ from those in the screen. Calls come from the whole dose curve; as a rule, active = well fitted activation curve with a large enough effect; inconclusive = small, poorly fitted or top-dose-only effect; inactive = no such curve, though single readings can be large or run the other way. Potencies of inconclusive entries are doubtful fits and often do not repeat.
Assay: qHTS Assay for Small Molecule Inhibitors of Mitochondrial Division or Activators of Mitochondrial Fusion; note: nearly all actives have a fitted effect of over 45% in size;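 for growth rescue (activation): temperature-sensitive fusion mutants such as fzo1-1 at 37 °C on non-fermentable ethanol glycerol medium; % of control where 0% means no effect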
Conditions: S. cerevisiae fusion-defective mutant growth rescue, CellTiterGlo 48 h; growth rescue (activation): at 46.1 µM (top of the series) unless noted
Method in brief: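 Yeast fusion mutant, YPEG (non-fermentable carbon), compound, 48 h at 37C non-permissive; CellTiterGlo added, 10 min RT, luminescence read. Rescued growth = division inhibition.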
Potency is the fitted concentration of half-maximal effect.

SMILES | Potency | growth rescue (activation)
O=C1N=C(N2CCN(c3ccccc3)CC2)S/C1=C/c1cccs1 | inconclusive: 17.8 µM [activator, single point] | –
CSCc1ccc(C(=O)Nc2cc(C)cc(C)c2)cc1 | inconclusive: 5.62 µM [activator, single point] | –
Cc1[nH]c2ccccc2c1SCCNC(=O)c1ccc(Br)o1 | inconclusive: 14.1 µM [activator, single point] | –
CNC(=O)c1ccsc1NC(=O)C1CCN(S(=O)(=O)c2ccc(Cl)s2)CC1 | inconclusive: 12.6 µM [activator, partial curve] | –
COc1ccc(C(=O)c2oc3ccc(OC)cc3c2N)cc1 | inconclusive: 15.8 µM [activator, partial curve] | –
COc1ccc(C(O)(CCN2CCOCC2)c2ccccc2)cc1 (stereo not drawn) | – | inactive: -0.84%
CCc1cc2cc(C)ccc2nc1SCC(=O)N1CC(=O)Nc2ccccc21 | inconclusive: 22.4 µM [activator, single point] | –
CCc1ccc2oc(C(=O)Nc3nonc3CC)c(C)c2c1 | inconclusive: 35.5 µM [activator, single point] | –
Cc1ccc(C(=O)N2CCCC(C(=O)c3ccc(Oc4ccccc4)cc3)C2)cn1 (stereo not drawn) | – | inactive: 17.3%
O=C(c1ccncc1)N(c1ccc2oc3c(c2c1)CCCC3)S(=O)(=O)c1cccc([N+](=O)[O-])c1 | inconclusive: 12.6 µM [activator, partial curve] | –
Cc1ccc(S(=O)(=O)N2CCC(C(=O)Nc3ccccc3N3CCCC3)CC2)c(C)c1 | inconclusive: 8.91 µM [activator, partial curve, poor fit] | –
Cc1ccc(C2=NN3C(C(=O)c4ccccc4)Oc4ccccc4C3C2)cc1 (stereo not drawn) | inconclusive: 22.4 µM [activator, single point] | –
COCCNC(=O)Cc1c(C)c2c(cc(C)c3c(C(C)(C)C)coc32)oc1=O | inconclusive: 14.1 µM [activator, single point] | –
CC(C)CC(c1nnnn1C1CCCCC1)N1CCN(c2ncccn2)CC1 (stereo not drawn) | inconclusive: 1.58 µM [activator, full curve] | –
O=c1[nH]c(O)c(/C=C2\C=Nc3ccc(Br)cc32)[nH]1 | – | inactive: -2.81%
COc1ccc(CCN2CCCn3c2nc2c3c(=O)n(CC(C)C)c(=O)n2C)cc1OC | inconclusive: 35.5 µM [activator, partial curve, poor fit] | –
CCC(=O)Oc1ccc(/C(CC)=C(\CC)c2ccc(OC(=O)CC)cc2)cc1 | inconclusive: 11.2 µM [activator, partial curve] | –
CC(Oc1cccc(Cl)c1)C(=O)Nc1cc(Cl)ccc1N1CCOCC1 (stereo not drawn) | inconclusive: 22.4 µM [activator, single point] | –

Three structures from above, ordered by molar mass, descending.
SMILES | Potency | growth rescue (activation)
COc1ccc(CCN2CCCn3c2nc2c3c(=O)n(CC(C)C)c(=O)n2C)cc1OC | inconclusive: 35.5 µM [activator, partial curve, poor fit] | –
CCC(=O)Oc1ccc(/C(CC)=C(\CC)c2ccc(OC(=O)CC)cc2)cc1 | inconclusive: 11.2 µM [activator, partial curve] | –
CCc1ccc2oc(C(=O)Nc3nonc3CC)c(C)c2c1 | inconclusive: 35.5 µM [activator, single point] | –
